According to paper doi:10.1101/243014:
Like-named read-outs stand apart in the source and are kept apart here. No constants are given. Whether binding was seen depends on the method and setting. In cells and extracts the contact can be indirect. A yes stands for co-enrichment or nearness to the bait. Other partners may have been found. For some of these results: Sequences can lack the tags named with a protein.

The chains behind the UniProt entries cited, without tags or fusion partners. Where a name states a change or a piece, a line headed by the entry shows the natural chain unless it says otherwise.
UniProt P08621: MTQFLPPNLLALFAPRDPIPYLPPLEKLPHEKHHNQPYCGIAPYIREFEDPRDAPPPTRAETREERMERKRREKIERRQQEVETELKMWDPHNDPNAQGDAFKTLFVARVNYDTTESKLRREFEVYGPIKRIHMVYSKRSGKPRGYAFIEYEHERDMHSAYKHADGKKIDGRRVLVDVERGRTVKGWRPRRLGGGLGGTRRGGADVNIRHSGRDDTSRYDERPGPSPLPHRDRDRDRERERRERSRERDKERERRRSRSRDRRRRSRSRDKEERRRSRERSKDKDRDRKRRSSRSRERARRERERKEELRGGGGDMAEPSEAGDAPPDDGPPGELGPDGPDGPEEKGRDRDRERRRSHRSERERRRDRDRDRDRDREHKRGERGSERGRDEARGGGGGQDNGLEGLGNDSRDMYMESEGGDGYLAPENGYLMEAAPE
UniProt P09012: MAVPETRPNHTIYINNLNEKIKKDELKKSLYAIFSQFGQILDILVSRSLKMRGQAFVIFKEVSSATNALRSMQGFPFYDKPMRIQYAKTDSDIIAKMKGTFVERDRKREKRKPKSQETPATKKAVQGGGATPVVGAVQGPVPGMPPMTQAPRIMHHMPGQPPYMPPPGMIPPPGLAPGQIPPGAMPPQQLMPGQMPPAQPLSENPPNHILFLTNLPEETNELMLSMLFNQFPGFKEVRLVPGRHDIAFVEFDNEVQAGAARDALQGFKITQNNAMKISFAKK
UniProt Q5T200: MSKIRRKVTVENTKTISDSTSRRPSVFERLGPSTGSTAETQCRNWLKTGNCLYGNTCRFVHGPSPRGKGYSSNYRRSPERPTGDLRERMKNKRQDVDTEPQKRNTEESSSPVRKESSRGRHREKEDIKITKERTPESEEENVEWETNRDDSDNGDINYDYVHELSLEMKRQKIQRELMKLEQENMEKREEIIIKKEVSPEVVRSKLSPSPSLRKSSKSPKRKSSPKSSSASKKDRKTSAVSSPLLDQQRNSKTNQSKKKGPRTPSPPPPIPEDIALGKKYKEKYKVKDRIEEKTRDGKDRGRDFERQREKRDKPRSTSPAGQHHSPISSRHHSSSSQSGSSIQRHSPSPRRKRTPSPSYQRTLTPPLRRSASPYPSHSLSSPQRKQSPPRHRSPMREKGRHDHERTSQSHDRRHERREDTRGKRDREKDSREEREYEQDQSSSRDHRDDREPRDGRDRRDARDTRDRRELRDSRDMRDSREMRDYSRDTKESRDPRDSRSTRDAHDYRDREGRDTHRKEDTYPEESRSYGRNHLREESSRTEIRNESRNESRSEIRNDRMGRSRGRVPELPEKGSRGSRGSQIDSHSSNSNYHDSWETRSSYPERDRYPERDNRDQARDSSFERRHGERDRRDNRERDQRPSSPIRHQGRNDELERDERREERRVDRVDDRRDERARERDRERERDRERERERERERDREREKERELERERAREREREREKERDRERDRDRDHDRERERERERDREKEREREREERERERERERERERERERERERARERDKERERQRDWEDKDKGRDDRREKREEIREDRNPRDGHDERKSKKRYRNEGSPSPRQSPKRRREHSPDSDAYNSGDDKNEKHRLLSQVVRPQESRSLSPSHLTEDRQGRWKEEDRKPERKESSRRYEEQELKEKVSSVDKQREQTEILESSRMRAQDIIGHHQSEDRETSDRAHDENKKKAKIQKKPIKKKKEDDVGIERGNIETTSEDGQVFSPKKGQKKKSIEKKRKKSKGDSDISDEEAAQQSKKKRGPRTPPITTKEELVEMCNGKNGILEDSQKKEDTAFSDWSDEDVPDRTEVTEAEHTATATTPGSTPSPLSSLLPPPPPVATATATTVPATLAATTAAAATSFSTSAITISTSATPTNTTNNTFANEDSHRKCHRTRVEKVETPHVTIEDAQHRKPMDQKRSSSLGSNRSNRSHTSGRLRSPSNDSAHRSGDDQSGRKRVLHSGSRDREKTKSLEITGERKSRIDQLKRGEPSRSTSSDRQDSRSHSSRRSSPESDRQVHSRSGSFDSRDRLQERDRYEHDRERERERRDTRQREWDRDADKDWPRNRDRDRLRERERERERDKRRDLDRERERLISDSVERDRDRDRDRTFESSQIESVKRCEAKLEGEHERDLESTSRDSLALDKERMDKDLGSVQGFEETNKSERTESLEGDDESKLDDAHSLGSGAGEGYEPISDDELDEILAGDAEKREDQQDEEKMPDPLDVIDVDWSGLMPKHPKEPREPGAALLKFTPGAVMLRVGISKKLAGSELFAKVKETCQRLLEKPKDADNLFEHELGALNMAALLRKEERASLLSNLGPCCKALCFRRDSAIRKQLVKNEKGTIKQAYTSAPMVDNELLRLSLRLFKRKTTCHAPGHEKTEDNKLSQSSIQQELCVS
UniProt Q07955: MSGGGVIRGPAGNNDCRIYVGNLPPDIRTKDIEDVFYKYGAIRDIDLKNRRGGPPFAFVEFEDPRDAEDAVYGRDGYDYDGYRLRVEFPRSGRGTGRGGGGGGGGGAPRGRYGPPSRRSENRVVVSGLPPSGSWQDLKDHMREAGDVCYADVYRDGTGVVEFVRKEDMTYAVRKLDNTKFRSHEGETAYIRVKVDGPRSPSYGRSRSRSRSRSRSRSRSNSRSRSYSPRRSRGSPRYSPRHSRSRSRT
UniProt P09234: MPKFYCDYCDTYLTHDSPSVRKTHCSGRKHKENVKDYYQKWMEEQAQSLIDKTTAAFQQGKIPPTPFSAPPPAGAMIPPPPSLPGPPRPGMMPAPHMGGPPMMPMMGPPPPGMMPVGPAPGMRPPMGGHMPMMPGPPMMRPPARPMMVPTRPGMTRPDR

Assays:
[1] = target: full-length recombinant GST-fused and Myc-tagged U1-70K (rU1-70K) (UniProt P08621); experiment: affinity purification with mass spectrometry
[2] = target: full-length recombinant GST-fused and Myc-tagged U1-70K (rU1-70K) (UniProt P08621); experiment: affinity purification with mass spectrometry; remark: listed apart in the source

Molecule | binding [1] | binding [2]
U1A (from UniProt P09012 1-282) | binds | –
ZC3H13 (from UniProt Q5T200 1-1668) | binds | –
DDX46 (protein, UniProt Q7L014 1-1031) MGRESRHYRKRSASRGRSGSRSRSRSPSDKRSKRGDDRRSRSRDRDRRRERSRSRDKRRSRSRDRKRLRRSRSRERDRSRERRRSRSRDRRRSRSRSRGRRSRSSSPGNKSKKTENRSRSKEKTDGGESSKEKKKDKDDKEDEKEKDAGNFDQNKLEEEMRKRKERVEKWREEQRKKAMENIGELKKEIEEMKQGKKWSLEDDDDDEDDPAEAEKEGNEMEGEELDPLDAYMEEVKEEVKKFNMRSVKGGGGNEKKSGPTVTKVVTVVTTKKAVVDSDKKKGELMENDQDAMEYSSEEEEVDLQTALTGYQTKQRKLLEPVDHGKIEYEPFRKNFYVEVPELAKMSQEEVNVFRLEMEGITVKGKGCPKPIKSWVQCGISMKILNSLKKHGYEKPTPIQTQAIPAIMSGRDLIGIAKTGSGKTIAFLLPMFRHIMDQRSLEEGEGPIAVIMTPTRELALQITKECKKFSKTLGLRVVCVYGGTGISEQIAELKRGAEIIVCTPGRMIDMLAANSGRVTNLRRVTYVVLDEADRMFDMGFEPQVMRIVDNVRPDRQTVMFSATFPRAMEALARRILSKPIEVQVGGRSVVCSDVEQQVIVIEEEKKFLKLLELLGHYQESGSVIIFVDKQEHADGLLKDLMRASYPCMSLHGGIDQYDRDSIINDFKNGTCKLLVATSVAARGLDVKHLILVVNYSCPNHYEDYVHRAGRTGRAGNKGYAYTFITEDQARYAGDIIKALELSGTAVPPDLEKLWSDFKDQQKAEGKIIKKSSGFSGKGFKFDETEQALANERKKLQKAALGLQDSDDEDAAVDIDEQIESMFNSKKRVKDMAAPGTSSVPAPTAGNAEKLEIAKRLALRINAQKNLGIESQDVMQQATNAILRGGTILAPTVSAKTIAEQLAEKINAKLNYVPLEKQEEERQDGGQNESFKRYEEELEINDFPQTARWKVTSKEALQRISEYSEAAITIRGTYFPPGKEPKEGERKIYLAIESANELAVQKAKAEITRLIKEELIRLQNSYQPTNKGRYKVL | – | binds
endogenous LUC7L3 (protein, UniProt O95232 1-432) MISAAQLLDELMGRDRNLAPDEKRSNVRWDHESVCKYYLCGFCPAELFTNTRSDLGPCEKIHDENLRKQYEKSSRFMKVGYERDFLRYLQSLLAEVERRIRRGHARLALSQNQQSSGAAGPTGKNEEKIQVLTDKIDVLLQQIEELGSEGKVEEAQGMMKLVEQLKEERELLRSTTSTIESFAAQEKQMEVCEVCGAFLIVGDAQSRVDDHLMGKQHMGYAKIKATVEELKEKLRKRTEEPDRDERLKKEKQEREEREKEREREREERERKRRREEEEREKERARDRERRKRSRSRSRHSSRTSDRRCSRSRDHKRSRSRERRRSRSRDRRRSRSHDRSERKHRSRSRDRRRSKSRDRKSYKHRSKSRDREQDRKSKEKEKRGSDDKKSSVKSGSREKQSEDTNTESKESDTKNEVNGTSEDIKSEGDTQSN | – | binds

Second part, the molecule after the results:

binding [1] | binding [2] | Molecule
binds | – | SRSF1 (from UniProt Q07955 1-248)
binds | – | U1C (from UniProt P09234 1-159)
– | binds | FIP1L1 (protein, UniProt Q6UN15 1-594) MSAGEVERLVSELSGGTGGDEEEEWLYGGPWDVHVHSDLAKDLDENEVERPEEENASANPPSGIEDETAENGVPKPKVTETEDDSDSDSDDDEDDVHVTIGDIKTGAPQYGSYGTAPVNLNIKTGGRVYGTTGTKVKGVDLDAPGSINGVPLLEVDLDSFEDKPWRKPGADLSDYFNYGFNEDTWKAYCEKQKRIRMGLEVIPVTSTTNKITAEDCTMEVTPGAEIQDGRFNLFKVQQGRTGNSEKETALPSTKAEFTSPPSLFKTGLPPSRNSTSSQSQTSTASRKANSSVGKWQDRYGRAESPDLRRLPGAIDVIGQTITISRVEGRRRANENSNIQVLSERSATEVDNNFSKPPPFFPPGAPPTHLPPPPFLPPPPTVSTAPPLIPPPGFPPPPGAPPPSLIPTIESGHSSGYDSRSARAFPYGNVAFPHLPGSAPSWPSLVDTSKQWDYYARREKDRDRERDRDRERDRDRDRERERTRERERERDHSPTPSVFNSDEERYRYREYAERGYERHRASREKEERHRERRHREKEETRHKSSRSNSRRRHESEEGDSHRRHKHKKSKRSKEGKEAGSEPAPEQESTEATPAE
